Measurements reported in PubChem BioAssay AID743454 (Peter MacCallum Cancer Centre, 2014)
Shown is a random part of about 18,000 deposited reagents. In the full data, 450 (2.5%) are marked active. 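Single biological run; no consistent viability z cut-off exists, so the class columns, not z-scores, define the calls.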 Reagent sequences are not shown.

Aim: 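Search for knock-downs that restore vorinostat killing in resistant colon cancer cells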 (primary screen)
Cell system: human HCT116-VR colon cancer cells, selected for vorinostat resistance
Reagents: siRNA pool against human genes, 40 nM siRNA pool
Duration: vorinostat for 24 h, read-out about 72 h after transfection
Treatment: vorinostat at 2.5 µM final
Read-out: 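Cell viability by CellTiter-Fluor and caspase 3/7 activity by luminescence, each scaled to mock wells per plate, duplicates averaged, then robust z-scored over all plates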
Reading the numbers: viability robust z-score: higher = more viable cells than screen typical; caspase robust z-score: higher = more caspase 3/7 activity than screen typical
Rule for the call: 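Hits are knock-downs in viability class RV1/RV2 or caspase class CA1/CA2, excluding ones that killed cells in the no-drug cell-count arm; hits then retested with single siRNAs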

target,PubChem SID,viability hit class,caspase hit class,viability robust z-score,caspase robust z-score,call
PRPF31,SID135624004,no change,no change,-1.64,1.27,inactive
LYPD8,SID135625516,no change,no change,0.84,0.17,inactive
LSM12,SID152156206,no change,no change,0.53,-0.47,inactive
PMEL,SID134317022,no change,no change,-0.08,-0.24,inactive
RASA3,SID135621716,no change,no change,-0.35,-0.2,inactive
MZB1,SID152151414,no change,no change,-1.23,2.12,inactive
DRD4,SID134310927,no change,no change,-0.5,0.5,inactive
CSN1S1,SID135623764,no change,no change,-0.68,0.7,inactive
CSRP1,SID135622205,no change,no change,-1.36,-0.87,inactive
MYL6,SID152147660,no change,no change,-0.36,-0.26,inactive
RNF181,SID152154013,no change,CA2 (caspase activation),-1.19,6.04,active
PRSS21,SID135620726,no change,no change,-0.61,-0.03,inactive
NTF3,SID152149806,no change,no change,-2.63,2.7,inactive
ZSCAN5B,SID135624410,no change,no change,0.22,-0.88,inactive
HNF1B,SID152147398,no change,no change,-0.36,4.58,inactive
ZNF335,SID134320175,no change,no change,-0.52,-0.16,inactive
IFNA14,SID135623797,no change,no change,-0.04,0.35,inactive
ZNF445,SID135621333,no change,no change,0.16,0.69,inactive
CDH16,SID134316145,no change,no change,-1.73,3.46,inactive
USP3,SID152156032,no change,no change,0.19,-0.14,inactive
ATG9B,SID152152292,no change,no change,0.38,-0.76,inactive
TRDMT1,SID152148618,no change,no change,-0.08,-0.98,inactive
LMO2,SID134316417,no change,no change,1.42,-0.47,inactive
SAMSN1,SID134310329,no change,no change,-0.31,-0.9,inactive
CLTCL1,SID135622158,no change,no change,0.86,-0.27,inactive
RFFL,SID135621320,no change,no change,-1.21,-1.25,inactive
TTC38,SID152147386,no change,no change,0.97,-0.26,inactive
C5,SID134312759,no change,no change,-0.08,1.06,inactive
GALNT2,SID134316181,no change,no change,-1.29,0.04,inactive
KDM5B,SID135621856,no change,no change,1.14,0.03,inactive
PARP12,SID152148031,no change,no change,1.32,0.48,inactive
RIOK3,SID152150051,no change,no change,0.39,-0.94,inactive
RMND5B,SID134320325,no change,no change,-0.36,0.45,inactive
TGIF1,SID135622119,no change,no change,0.57,-0.68,inactive
ANKRD11,SID152148091,no change,no change,0.94,0.57,inactive
GRAMD2B,SID134318423,no change,no change,0.13,-0.45,inactive
RPL26,SID152149429,no change,no change,-4.57,-0.96,inactive
BOLA3,SID135625156,no change,no change,1.18,0.15,inactive
CACNA1C,SID152154827,no change,no change,-1.48,0.27,inactive
SPA17,SID152148417,no change,no change,0.18,2.22,inactive
PXDNL,SID134313322,no change,no change,-0.62,0.55,inactive
KBTBD8,SID134318993,no change,no change,1.38,-1.18,inactive
MOXD1,SID152149278,no change,no change,0.64,-0.77,inactive
RAB28,SID135621599,no change,no change,-0.46,-0.41,inactive
ZC3H18-DT,SID135625285,no change,no change,-0.13,1.49,inactive
ITPKB,SID56479111,no change,no change,-0.4,1.44,inactive
SCN11A,SID135621176,no change,no change,-1.12,0.63,inactive
CBL,SID152148983,no change,no change,-0.12,0.82,inactive
PGK1,SID56479130,no change,no change,-0.23,1.64,inactive
PTTG1IP,SID134316137,no change,no change,0.3,-0.66,inactive
OR6K3,SID134329911,no change,no change,-0.15,3.69,inactive
CCDC85B,SID134316591,no change,no change,-1.12,0.29,inactive
CAPN11,SID134311228,no change,no change,-0.08,-0.86,inactive
LTV1,SID134320350,no change,no change,-2.17,-1,inactive
THADA,SID152151752,no change,no change,1.37,-0.12,inactive
MYBPH,SID152151918,no change,no change,-0.39,1.52,inactive
NDUFB8,SID152147744,no change,no change,-1.65,-0.14,inactive

No new results follow: entries from further up.
target,PubChem SID,viability hit class,caspase hit class,viability robust z-score,caspase robust z-score,call
PRSS21,SID135620726,no change,no change,-0.61,-0.03,inactive
NTF3,SID152149806,no change,no change,-2.63,2.7,inactive
ZSCAN5B,SID135624410,no change,no change,0.22,-0.88,inactive
HNF1B,SID152147398,no change,no change,-0.36,4.58,inactive
ZNF335,SID134320175,no change,no change,-0.52,-0.16,inactive
